Reference: patent US20140349944A1, “CHAPERONE-BASED INTEGRIN INHIBITORS FOR THE TREATMENT OF CANCER AND INFLAMMATORY DISEASES” (priority 2013, published 2014)
These are yes or no findings as the source states them, for the method shown. Binding seen in cells or lysates may run through a third protein. Some binding calls cover weakened binding; strength is not graded here. Where a sequence is shown, tags or fusion partners need not be part of it. Blank lines part the entries; values can stand above or below the binder they belong to.

Amino acid sequences for entries named in this document (tags omitted). Residues count along the entry.
UniProt P08113, residues 22-802: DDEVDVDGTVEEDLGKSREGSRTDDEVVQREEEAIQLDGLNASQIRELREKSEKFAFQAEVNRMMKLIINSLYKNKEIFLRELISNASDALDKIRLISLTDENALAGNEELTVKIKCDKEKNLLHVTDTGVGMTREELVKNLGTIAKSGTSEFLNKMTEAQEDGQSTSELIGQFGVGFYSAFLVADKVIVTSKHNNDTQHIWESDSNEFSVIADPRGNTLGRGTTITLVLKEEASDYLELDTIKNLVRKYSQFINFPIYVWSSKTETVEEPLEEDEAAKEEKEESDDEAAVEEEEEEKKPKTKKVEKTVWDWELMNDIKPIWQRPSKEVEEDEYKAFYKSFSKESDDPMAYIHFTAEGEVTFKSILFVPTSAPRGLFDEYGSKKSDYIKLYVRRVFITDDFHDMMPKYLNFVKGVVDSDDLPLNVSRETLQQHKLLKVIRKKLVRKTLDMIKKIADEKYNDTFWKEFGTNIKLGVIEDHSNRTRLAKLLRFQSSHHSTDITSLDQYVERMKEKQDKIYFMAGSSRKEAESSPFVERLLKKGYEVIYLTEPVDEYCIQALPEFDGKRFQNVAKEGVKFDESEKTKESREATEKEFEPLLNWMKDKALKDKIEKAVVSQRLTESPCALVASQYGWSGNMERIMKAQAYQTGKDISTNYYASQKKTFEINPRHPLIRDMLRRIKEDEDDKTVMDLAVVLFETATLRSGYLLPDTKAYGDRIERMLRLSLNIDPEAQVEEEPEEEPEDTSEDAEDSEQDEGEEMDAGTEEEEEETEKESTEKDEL

Legend:
[1] = target: gp96 (mouse) (mouse) (UniProt P08113); assay: GST pull-down from murine B cell lysates, immunoblot (FIG. 2A)
[2] = target: gp96 (mouse) (mouse) (UniProt P08113); assay: GST pull-down from murine B cell lysates, immunoblot (legend of FIG. 2A)

binding [1]: binds | binding [2]: binds
B1: GST-tagged AID of integrin αD (protein, mouse, UniProt Q3V0T4 159-341, looked up, not shown: a dimerising Fc or GST)
chain: DIAFLIDGSGSIDQSDFTQMKDFVKALMGQLASTSTSFSLMQYSNILKTHFTFTEFKSSLSPQSLVDAIVQLQGLTYTASGIQKVVKELFHSKNGARKSAKKILIVITDGQKFRDPLEYRHVIPEAEKAGIIRYAIGVGDAFREPTALQELNTIGSAPSQDHVFKVGNFVALRSIQRQIQEKI

binding [1]: binds | binding [2]: binds
B2: GST-tagged AID of integrin αM (protein, mouse, UniProt P05555 148-338, looked up, not shown: a dimerising Fc or GST)
chain: ESDIVFLIDGSGSINNIDFQKMKEFVSTVMEQFKKSKTLFSLMQYSDEFRIHFTFNDFKRNPSPRSHVSPIKQLNGRTKTASGIRKVVRELFHKTNGARENAAKILVVITDGEKFGDPLDYKDVIPEADRAGVIRYVIGVGNAFNKPQSRRELDTIASKPAGEHVFQVDNFEALNTIQNQLQEKIFAIEGT

binding [1]: binds | binding [2]: binds
B3: GST-tagged AID of integrin αL (protein, mouse, UniProt P24063 150-330, looked up, not shown: a dimerising Fc or GST)
chain: GKVDLVFLFDGSQSLDRKDFEKILEFMKDVMRKLSNTSYQFAAVQFSTDCRTEFTFLDYVKQNKNPDVLLGSVQPMFLLTNTFRAINYVVAHVFKEESGARPDATKVLVIITDGEASDKGNISAAHDITRYIIGIGKHFVSVQKQKTLHIFASEPVEEFVKILDTFEKLKDLFTDLQRRIY

binding [1]: binds | binding [2]: binds
B4: GST-tagged AID of integrin α2 (protein, mouse, UniProt Q62469 170-365, looked up, not shown: a dimerising Fc or GST)
chain: VDVVVVCDESNSIYPWEAVKNFLVKFVTGLDIGPKKTQVALIQYANEPRIIFNLNDFETKEDMVQATSETRQHGGDLTNTFRAIEFARDYAYSQTSGGRPGATKVMVVVTDGESHDGSKLKTVIQQCNDDEILRFGIAVLGYLNRNALDTKNLIKEIKAIASTPTERYFFNVADEAALLEKAGTLGEQIFSIEGTV

binding [1]: binds | binding [2]: binds
B5: GST-tagged AID of integrin αE (protein, mouse, UniProt Q60677 195-378, looked up, not shown: a dimerising Fc or GST)
chain: EIAIVLDGSGSIEPSDFQKAKNFISTMMRNFYEKCFECNFALVQYGAVIQTEFDLQESRDINASLAKVQSIVQVKEVTKTASAMQHVLDNIFIPSRGSRKKALKVMVVLTDGDIFGDPLNLTTVINSPKMQGVVRFAIGVGDAFKNNNTYRELKLIASDPKEAHTFKVTNYSALDGLLSKLQQH

binding [1]: binds | binding [2]: binds
B6: GST-tagged AID of integrin α1 (protein, mouse, UniProt Q3V3R4 170-364, looked up, not shown: a dimerising Fc or GST)
chain: QLDIVIVLDGSNSIYPWESVTAFLNDLLKRMDIGPKQTQVGIVQYGANVTHEFNLNKYSSTEEVLVAANKIGRRGGLQTMTALGIDTARKEAFTEARGARRGVKKVMVIVTDGESHDNYRLKQVIQDCEDENIQRFSIAILGHYNRGNLSTEKFVEEIKSIASEPTEKHFFNVSDELALVTIVKALGERIFALEA
